Part of at least one peptide drawing is inferred or uncertain, most often the ends. Ends that are not written are not given here.
Experiments:
[1] = tested on: non-cancerous cells; assay: Untransformed cell lines and primary human cells incubated with peptide (FIG. 5); assay type: cell-based
Source text: The experimental methods which yielded the data depicted in FIG. 5 are described in sufficient detail for those skilled in the art in the following publications: • Kanovsky, M., Raffo, A., Drew, L., Rosal, R., Do, T., Friedman, F. K., Rubinstein, P., Visser, I., Robinson, R., Brandt-Rauf, […]., Fine, R. L. and Pincus, M. R. (2001) Peptides from the Amino Terminal mdm-2 Binding Domain of p53, Designed from Conformational Analysis, Are Selectively Cytotoxic to Transformed Cells. Proc. Natl. Acad. Sci. USA 98, 12438-12443; • Do, T. N., Rosal, R. V., Drew, L., Raffo, […]., Pincus, M. R., Friedman, […]., Sidhu, G., Fine, R. L. and Brandt-Rauf, P. W. (2003) Preferential Induction of Necrosis in Human Breast Cancer Cells by a p53 Peptide Derived from the mdm-2 Binding Site. Oncogene 22, 1431-1444; and • Bowne, […]., Yadzi, E., Lou, […]., Harding, M., Bluth, M. H., Ng, M., Brandt-Rauf, […]. and Pincus, M. r. (2008) The Penetrating Sequence in the Anti-Cancer PNC-28 Peptide Causes Tumor Necrosis Rather than Apoptosis of Human Pancreatic Cancer Cells. Ann. Surg. Oncol., in press. Referring to FIG. 5, the table illustrates that the cancer treatment PNC-27, when administered to non-cancerous cells, has no effect. […]

Amino acid sequences for entries named in this document (tags omitted).
UniProt Q00987, whole entry: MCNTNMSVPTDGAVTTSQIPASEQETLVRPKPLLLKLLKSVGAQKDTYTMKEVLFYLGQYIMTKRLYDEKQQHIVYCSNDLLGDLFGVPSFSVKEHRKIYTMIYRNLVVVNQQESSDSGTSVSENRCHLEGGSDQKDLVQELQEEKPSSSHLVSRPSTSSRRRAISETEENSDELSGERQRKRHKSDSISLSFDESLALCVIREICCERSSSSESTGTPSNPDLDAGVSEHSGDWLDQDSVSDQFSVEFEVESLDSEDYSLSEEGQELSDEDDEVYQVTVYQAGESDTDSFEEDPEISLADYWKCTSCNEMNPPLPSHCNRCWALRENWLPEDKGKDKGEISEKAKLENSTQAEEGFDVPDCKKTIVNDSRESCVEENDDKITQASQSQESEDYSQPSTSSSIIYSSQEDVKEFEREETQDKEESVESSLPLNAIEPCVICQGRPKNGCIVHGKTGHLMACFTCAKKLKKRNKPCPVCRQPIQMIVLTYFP

[2] = target: T1, HDM-2 (Homo sapiens, UniProt Q00987); assay: Confocal microscopy of MCF-10-2A cells transfected with HDM-2 constructs; assay type: cell-based
T1 construct: green fluorescent protein (GFP) (N); (PrecisionShuttle vector); host or cells: MCF-10-2A normal human breast epithelial cells

[3] = tested on: HDM-2; assay: as above; assay type: cell-based, human; conditions: empty vector-transfected MCF-10-2A cells
[4] = tested on: MCF-10-2A human breast epithelial cells; assay: MTT cell viability of construct-transfected MCF-10-2A cells (FIG. 12); assay type: cell-based

Row | Molecule | effect on non-cancerous cells ([1]; Thirty microMolar, one day up to two weeks, normal rat pancreatic acinar cells, human breast cells, primary human fibroblasts, primary human keratinocytes, umbilical cord stem cells) | susceptibility of normal cells ([1]; normal MCF-10-2A breast epithelial cells, untransfected) | fluorescence pattern after PNC-27 ([2]; full-length HDM-2 construct with membrane-attaching sequence (CAAX)) | fluorescence pattern after PNC-27 ([2]; full-length HDM-2 without the membrane localization signal) | fluorescence pattern after PNC-27 ([2]; truncated del-1-109-HDM-2-CAAX-containing cells) | fluorescence pattern after PNC-27 [3] | cell viability (% proliferation), MTT, compared with control peptide-treated cells ([4]; all constructs except MDM-2-CAAX) | cell viability (% proliferation), MTT ([4]; cells transfected with MDM-2-CAAX (full-length MDM-2 attached to CAAX)) | effect of control peptide on cells ([4]; any cells, cancer or normal non-cancerous cells)
1 | PPLSQETFSDLWKLLKKWKMRRNQFWVKVQRG [PNC-27] | no measurable effect | not susceptible | co-localization of PNC-27 with HDM-2 | no co-localization of PNC-27 and HDM-2 in the membrane | does not bind to truncated HDM-2 | very little red (PNC-27) anywhere | very similar | killed | 
2 | CC[C@H](C)[C@H](NC(=O)[C@H](CCCNC(=N)N)NC(=O)[C@H](CCCCN)NC(=O)CNC(=O)[C@@H](NC(=O)[C@H](CO)NC(=O)[C@H](Cc1ccccc1)NC(=O)[C@@H]1CCCN1C(=O)[C@@H](N)CCSC)[C@@H](C)O)C(=O)N[C@@H](CCSC)C(=O)N[C@@H](CC(C)C)C(=O)NCC(=O)N[C@@H](CCC(=O)O)C(=O)N[C@@H](CCCCN)C(=O)N[C@@H](CCCCN)C(=O)N[C@@H](Cc1c[nH]c2ccccc12)C(=O)N[C@@H](CCCCN)C(=O)N[C@@H](CCSC)C(=O)N[C@@H](CCCNC(=N)N)C(=O)N[C@@H](CCCNC(=N)N)C(=O)N[C@@H](CC(N)=O)C(=O)N[C@@H](CCC(N)=O)C(=O)N[C@@H](Cc1ccccc1)C(=O)N[C@@H](Cc1c[nH]c2ccccc12)C(=O)N[C@H](C(=O)N[C@@H](CCCCN)C(=O)N[C@H](C(=O)N[C@@H](CCC(N)=O)C(=O)N[C@@H](CCCNC(=N)N)C(=O)NCC(=O)O)C(C)C)C(C)C [PNC-29, reference compound] |  |  |  |  |  |  |  |  | no effect on any cells
